Source: paper PMC10912198
These are yes or no findings as the source states them, for the method shown. In cells and extracts the contact can be indirect. A result given as binding can be weak or reduced; the word gives no strength.

By UniProt entry, the sequences of proteins in these tests, tags left out. Where a name states a change or a piece, a line headed by the entry shows the natural chain unless it says otherwise. Residues count along the entry.
UniProt Q9CXZ1, residues 43-175: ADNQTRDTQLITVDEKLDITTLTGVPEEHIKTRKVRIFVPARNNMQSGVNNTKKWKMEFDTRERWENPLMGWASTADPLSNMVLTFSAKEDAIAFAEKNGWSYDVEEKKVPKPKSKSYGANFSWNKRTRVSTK
UniProt Q99JB2: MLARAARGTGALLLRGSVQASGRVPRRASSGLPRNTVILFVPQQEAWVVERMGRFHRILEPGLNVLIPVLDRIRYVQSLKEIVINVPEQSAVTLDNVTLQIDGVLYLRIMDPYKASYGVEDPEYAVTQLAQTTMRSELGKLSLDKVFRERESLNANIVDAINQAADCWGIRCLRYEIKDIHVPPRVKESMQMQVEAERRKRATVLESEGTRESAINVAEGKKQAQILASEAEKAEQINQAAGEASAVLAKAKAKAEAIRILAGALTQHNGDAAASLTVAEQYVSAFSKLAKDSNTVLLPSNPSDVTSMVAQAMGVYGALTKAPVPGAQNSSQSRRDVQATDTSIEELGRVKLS

Molecular target: GST-NDUFS4 fusion protein (UniProt Q9CXZ1)
Test: pull-down; 2 ug GST or GST-NDUFS4 immobilized on Glutathione Sepharose 4B beads, incubated 3 h at 4 C with cleared lysate (TNTE buffer) of HEK293T cells expressing STOML2-HA or deletion mutants; immunoblot; only the target purified

binding | Substance
binds | STOML2 Δα5-HA (from UniProt Q99JB2)
binds | STOML2 Δβ1-HA (from UniProt Q99JB2)
